# Results reported in publication PMC11068012.
# Target: Enhancer of Zeste [E(z)] (D. melanogaster (endogenous in larval CNS)) (UniProt P42124)
# Test: co-IP; third instar larval CNS protein extracts (1 mg per reaction; 25 mM Hepes, 0.1 mM EDTA, 12.5 mM MgCl2, 10% glycerol, 0.01% NP-40, 10 mM NaCl; sonicated), precipitated with anti-Ph or anti-E(z) overnight at 4°C on protein A/G beads, Western blot
substance,measurement,value
Drosophila TET catalytic dead (TET^CD-GFP fusion protein from Tet^CD-GFP knock-in flies) (from UniProt M9NEY8-5),binding,no binding

# No constants are given. Whether binding was seen depends on the method and setting. Binding seen in cells or lysates may run through a third protein.
